Assay results published in patent US20190320896A1, “STROKE, CONCUSSION, AND COGNITIVE DYSFUNCTION DIAGNOSTIC METHOD AND DEVICE” (priority 2018, published 2019).
At least one compound was matched to its structure with a doubt left.

Assay: Extinction coefficient of fluorescein in basic ethanol
Assay type: physicochemical
Settings: excitation 470 nm, at 535 nm

O=C1OC2(c3ccc(O)cc3Oc3cc(O)ccc32)c2ccccc21 [sodium fluorescein]
peak molar extinction coefficient: 92300 cm^−1M^−1
